Laboratory results from US20190324032A1 (University of California, published 2019).
Substitutions are numbered along the chain they refer to. These are yes or no findings as the source states them, for the method shown. Binding seen in cells or lysates may run through a third protein. Some results given as binding are weak or reduced against the parent protein; the word gives no strength.

Amino acid sequences for entries named in this document (tags omitted). A change or cut given only in a name is not applied to a line headed by its entry.
UniProt Q9WTL8: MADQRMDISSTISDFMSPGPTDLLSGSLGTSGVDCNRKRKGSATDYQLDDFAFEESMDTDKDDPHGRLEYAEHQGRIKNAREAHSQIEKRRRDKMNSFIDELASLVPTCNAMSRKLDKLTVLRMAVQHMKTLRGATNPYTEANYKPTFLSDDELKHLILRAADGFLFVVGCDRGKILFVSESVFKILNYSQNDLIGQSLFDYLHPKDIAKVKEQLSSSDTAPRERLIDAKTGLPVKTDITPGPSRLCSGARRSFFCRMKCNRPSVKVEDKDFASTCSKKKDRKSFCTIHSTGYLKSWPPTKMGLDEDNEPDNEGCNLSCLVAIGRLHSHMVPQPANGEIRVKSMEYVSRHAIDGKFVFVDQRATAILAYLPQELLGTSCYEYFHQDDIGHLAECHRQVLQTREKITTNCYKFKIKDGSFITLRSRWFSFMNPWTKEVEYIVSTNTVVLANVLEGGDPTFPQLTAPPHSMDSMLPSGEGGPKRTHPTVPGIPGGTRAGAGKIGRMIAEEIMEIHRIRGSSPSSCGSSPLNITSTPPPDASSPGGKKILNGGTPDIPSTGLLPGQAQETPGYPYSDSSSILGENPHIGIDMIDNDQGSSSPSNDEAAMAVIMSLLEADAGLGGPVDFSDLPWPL

Legend:
[1] = biological target: T1, mouse CLOCK PAS-AB (residues 93-395) (mouse) (UniProt O08785); assay: GST pull-down
T1 sequence: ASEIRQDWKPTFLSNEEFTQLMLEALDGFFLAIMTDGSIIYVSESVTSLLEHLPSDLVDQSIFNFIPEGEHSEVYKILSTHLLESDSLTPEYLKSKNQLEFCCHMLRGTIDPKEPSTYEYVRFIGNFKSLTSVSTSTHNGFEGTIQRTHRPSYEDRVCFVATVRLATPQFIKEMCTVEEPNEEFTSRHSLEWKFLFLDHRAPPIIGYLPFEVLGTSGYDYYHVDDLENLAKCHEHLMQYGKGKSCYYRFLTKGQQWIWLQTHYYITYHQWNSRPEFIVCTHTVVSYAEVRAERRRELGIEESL

[2] = biological target: T2, mouse CLOCK PAS-AB W362A (mouse) (UniProt O08785); assay: GST pull-down
T2 sequence: T1 sequence with W270A

binding [1]: binds
binding [2]: binds
Substance: GST-BMAL1 PAS-AB (from UniProt Q9WTL8 136-441)
